Experimental data reported in PMC4775043.

Legend:
GFP-MED19a (Arabidopsis) = biological target: T1, GFP-MED19a (Arabidopsis) (UniProt Q9FMP0); experiment: co-IP; co-immunoprecipitation analysis between GFP-MED19a and MED6 and MED7, read by immunoblot
T1 sequence: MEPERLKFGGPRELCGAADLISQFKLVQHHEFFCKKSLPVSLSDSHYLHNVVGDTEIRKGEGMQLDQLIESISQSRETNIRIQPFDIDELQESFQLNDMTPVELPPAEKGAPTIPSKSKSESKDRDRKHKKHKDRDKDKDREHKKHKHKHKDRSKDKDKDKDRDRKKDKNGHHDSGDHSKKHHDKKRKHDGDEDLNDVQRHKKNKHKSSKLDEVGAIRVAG

[1] = biological target: T2, YFPn-MED19a (Arabidopsis) (UniProt Q9FMP0); experiment: split reporter; BiFC with YFPc and YFPn fusions, transient expression in N. benthamiana, microscopy
T2 sequence: T1 sequence

binding (GFP-MED19a (Arabidopsis)) | Substance | binding [1]
binds | MED7 | 
 | YFPc-HaRxL44 (Hpa (downy mildew)) | binds

Results are given in words; binding and its absence hold for the method and conditions named. In cells and extracts the contact can be indirect. A result given as binding can be weak or reduced; the word gives no strength. For some assays here: Tags and fused reporters may be left off the sequences shown.
